Here are results for one substance from PMC9071441.

The chains behind the UniProt entries cited, without tags or fusion partners. Where a name states a change or a piece, a line headed by the entry shows the natural chain unless it says otherwise.
UniProt Q9JKD8: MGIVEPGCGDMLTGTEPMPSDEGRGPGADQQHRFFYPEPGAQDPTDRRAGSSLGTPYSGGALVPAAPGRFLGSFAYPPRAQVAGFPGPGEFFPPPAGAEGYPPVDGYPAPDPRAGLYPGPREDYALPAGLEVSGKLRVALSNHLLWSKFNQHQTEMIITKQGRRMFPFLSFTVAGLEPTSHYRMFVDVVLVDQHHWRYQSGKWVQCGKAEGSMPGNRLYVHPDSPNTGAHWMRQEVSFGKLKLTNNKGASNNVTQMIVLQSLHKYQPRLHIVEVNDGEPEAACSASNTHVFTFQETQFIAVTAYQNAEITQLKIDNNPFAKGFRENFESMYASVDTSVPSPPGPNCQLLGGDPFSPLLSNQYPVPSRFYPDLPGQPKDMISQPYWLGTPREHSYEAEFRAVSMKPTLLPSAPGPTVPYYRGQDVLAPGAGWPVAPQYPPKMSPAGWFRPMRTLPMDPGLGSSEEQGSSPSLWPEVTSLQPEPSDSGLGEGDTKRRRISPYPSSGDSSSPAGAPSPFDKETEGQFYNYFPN
UniProt P23772: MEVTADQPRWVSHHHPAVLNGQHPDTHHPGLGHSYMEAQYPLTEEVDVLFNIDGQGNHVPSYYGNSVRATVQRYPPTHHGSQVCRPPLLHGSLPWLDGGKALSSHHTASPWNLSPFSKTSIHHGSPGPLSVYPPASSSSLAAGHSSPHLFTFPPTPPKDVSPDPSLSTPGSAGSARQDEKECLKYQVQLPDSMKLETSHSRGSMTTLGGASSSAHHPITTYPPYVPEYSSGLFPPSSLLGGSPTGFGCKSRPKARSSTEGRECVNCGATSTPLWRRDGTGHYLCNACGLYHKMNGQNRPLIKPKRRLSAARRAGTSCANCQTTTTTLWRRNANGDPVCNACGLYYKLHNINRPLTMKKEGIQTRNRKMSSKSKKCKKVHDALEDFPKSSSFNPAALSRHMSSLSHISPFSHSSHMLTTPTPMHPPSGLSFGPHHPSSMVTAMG

The experiment deals with mNeonGreen-tagged T-bet DNA binding domain (aa 135-326) Q160A (mouse) (UniProt Q9JKD8). Description: co-IP; HEK293T cells transiently transfected with mNeonGreen-tagged and HA-tagged proteins; lysates (300 mM NaCl, 0.5% IGEPAL CA-630) treated with benzonase, diluted to 150 mM NaCl, mNeonGreen-Trap magnetic agarose beads 1 hr at 4°C; washes with 150 mM and 500 mM NaCl; immunoblot with anti-HA. On the technique in general: Immunoblotting shows a protein as a band on a membrane.

No constants are given. Whether binding was seen depends on the method and setting. In cells and extracts the contact can be indirect. Binding can be weak; no strength is given.

Consider “full-length GATA3 with C-terminal double HA tag (from UniProt P23772 1-443)”, for which the binding entry is on record as “binds”.
